Some entries share one result that the patent states for a list of compounds. For at least one compound, name, drawing or mass did not settle the structure.
What was measured:
HIV-1-BaL = assay: HIV-1 infection of monocytes / mononuclear phagocytes (Mo, Mac), supernatant medium RT activity; assay type: cell-based; conditions: Mo with HIV-1-BaL or HIV-1-ADA
Experimental: (§1) Monocytes and lymphocytes were isolated and cultured as previously described (J. Exp. Med. 174:1477 (1991)). Briefly, monocytes were isolated by sequential ficoll-sodium diazotrate and Percoll gradients with subsequent adherence to cultureware plastic, and then cultured in Dulbecco's modified Eagle medium (GIBCO, Grand Islands, N.Y.) with 10% unheated human serum. Lymphocytes were from ficoll-sodium diazotrate gradients, and were cultured with anti-CD3/anti-CD28 antibody and subsequently IL-2. Reverse transcription (RT) was measured as described (Weinberg et al, J. Exp. Med. 174:1477 (1991)) using a phosphoimager device for quantification. […] The cobalamins had extremely low endotoxin content, as determined by Limulus amebocyte lysate testing (Whitaker Bioproducts, Walkerville, Md.). […] Cobalamins were not toxic for Mo, Mac, Lym, and leukemia cell line cells, as determined by morphology under phase microscopy, Wright staining of methanol-fixed cells, trypan blue exclusion, and thymidine incorporation were carried out in accordance with standard techniques.
Monocytes were inoculated at time zero with HIV-1-Bal (Weinberg et al, J. Exp. Med. 174:1477 (1991)) (MOI ˜0.1)and cultured with the designated cobalamin for 7-14 days. Supernatant medium RT was then measured (Weinberg et al, J. Exp. Med. 174:1477 (1991)). […]

HIV-1-IIIB = assay: HIV-1 infection of PBL, supernatant medium RT activity; assay type: cell-based; conditions: PBL with HIV-1-BaL or HIV-1-IIIB
Experimental: as §1, with “quantification. Leukemia cell lines Jurkat, CEM, HL-60, and U937 were obtained from American Type Culture Collection (Rockville, Md.).” for “quantification.”
PBL were inoculated with HIV-1-IIIB (MOI ˜0.1) and cultured with the designated cobalamin for 15-25 days. Supernatant medium RT was then measured. […]

SMILES | inhibition of RT (HIV-1-BaL) | inhibition of RT (HIV-1-IIIB)
C/C1=C2/[N-]C([C@H](CC(N)=O)[C@@]2(C)CCC(=O)NC[C@@H](C)OP(=O)([O-])O[C@H]2[C@@H](O)[C@@H](n3cnc4cc(C)c(C)cc43)O[C@@H]2CO)[C@]2(C)N=C(/C(C)=C3N=C(/C=C4N=C1[C@@H](CCC(N)=O)C\4(C)C)[C@@H](CCC(N)=O)[C@]\3(C)CC(N)=O)[C@@H](CCC(N)=O)[C@]2(C)CC(N)=O.[CH2-][C@H]1O[C@@H](n2cnc3c(N)ncnc32)[C@@H](O)[C@@H]1O.[Co+3] [Ado-Cbl, adencobalamin] | up to 90% | up to 90%
C/C1=C2/[N-][C@H]([C@H](CC(N)=O)[C@@]2(C)CCC(=O)NC[C@@H](C)OP(=O)([O-])O[C@H]2[C@@H](O)[C@@H](n3cnc4cc(C)c(C)cc43)O[C@@H]2CO)[C@]2(C)N=C(/C(C)=C3N=C(/C=C4N=C1[C@@H](CCC(N)=O)C\4(C)C)[C@@H](CCC(N)=O)[C@]\3(C)CC(N)=O)[C@@H](CCC(N)=O)[C@]2(C)CC(N)=O.[CH3-].[Co] [Me-Cbl] | up to 90% | up to 90%
